This note sets out measurements from the supplement of paper PMC12819154, “High-throughput peptide-centric local stability assay extends protein–ligand identification to membrane proteins, tissues and bacteria” (Nature Structural & Molecular Biology, 2025).

Amino acid sequences for entries named in this document (tags omitted). A change or cut given only in a name is not applied to a line headed by its entry.
UniProt P14733: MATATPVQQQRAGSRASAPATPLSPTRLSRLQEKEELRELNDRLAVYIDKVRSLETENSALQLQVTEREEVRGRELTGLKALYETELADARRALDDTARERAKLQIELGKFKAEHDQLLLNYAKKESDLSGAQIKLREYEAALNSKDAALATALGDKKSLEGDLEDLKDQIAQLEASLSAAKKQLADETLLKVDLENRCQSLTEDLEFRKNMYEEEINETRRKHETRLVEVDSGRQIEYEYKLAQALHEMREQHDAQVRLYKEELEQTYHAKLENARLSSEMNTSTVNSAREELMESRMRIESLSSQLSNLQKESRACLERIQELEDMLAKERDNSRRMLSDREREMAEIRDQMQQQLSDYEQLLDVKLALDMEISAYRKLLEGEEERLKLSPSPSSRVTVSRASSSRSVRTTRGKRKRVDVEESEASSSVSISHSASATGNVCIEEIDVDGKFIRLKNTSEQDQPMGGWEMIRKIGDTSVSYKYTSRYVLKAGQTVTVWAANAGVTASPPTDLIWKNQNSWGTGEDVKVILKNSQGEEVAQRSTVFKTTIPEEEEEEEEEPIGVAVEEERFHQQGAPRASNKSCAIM
UniProt P0DOV2: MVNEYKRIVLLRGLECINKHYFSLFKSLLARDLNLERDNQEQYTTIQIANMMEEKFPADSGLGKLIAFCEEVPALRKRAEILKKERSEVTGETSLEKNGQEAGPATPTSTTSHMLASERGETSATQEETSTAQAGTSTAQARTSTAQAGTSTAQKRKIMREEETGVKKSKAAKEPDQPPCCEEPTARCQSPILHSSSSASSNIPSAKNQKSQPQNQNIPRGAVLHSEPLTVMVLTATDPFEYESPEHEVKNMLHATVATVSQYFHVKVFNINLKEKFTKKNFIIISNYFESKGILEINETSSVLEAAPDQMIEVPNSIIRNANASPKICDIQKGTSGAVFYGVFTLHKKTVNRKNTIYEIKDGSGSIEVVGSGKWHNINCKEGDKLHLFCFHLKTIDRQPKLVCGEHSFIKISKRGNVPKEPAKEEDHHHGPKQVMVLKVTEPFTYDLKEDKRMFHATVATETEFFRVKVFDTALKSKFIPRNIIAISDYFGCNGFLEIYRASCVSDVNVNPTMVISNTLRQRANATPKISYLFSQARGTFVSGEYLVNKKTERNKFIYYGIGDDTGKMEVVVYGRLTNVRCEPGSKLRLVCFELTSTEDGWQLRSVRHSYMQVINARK
UniProt P12246: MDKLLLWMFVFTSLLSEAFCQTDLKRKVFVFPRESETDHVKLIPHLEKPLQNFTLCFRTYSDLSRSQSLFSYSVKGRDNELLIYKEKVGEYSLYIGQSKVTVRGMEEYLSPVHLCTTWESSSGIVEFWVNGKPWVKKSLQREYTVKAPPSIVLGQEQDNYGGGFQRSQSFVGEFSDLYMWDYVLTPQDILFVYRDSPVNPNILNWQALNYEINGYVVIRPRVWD
UniProt P00342: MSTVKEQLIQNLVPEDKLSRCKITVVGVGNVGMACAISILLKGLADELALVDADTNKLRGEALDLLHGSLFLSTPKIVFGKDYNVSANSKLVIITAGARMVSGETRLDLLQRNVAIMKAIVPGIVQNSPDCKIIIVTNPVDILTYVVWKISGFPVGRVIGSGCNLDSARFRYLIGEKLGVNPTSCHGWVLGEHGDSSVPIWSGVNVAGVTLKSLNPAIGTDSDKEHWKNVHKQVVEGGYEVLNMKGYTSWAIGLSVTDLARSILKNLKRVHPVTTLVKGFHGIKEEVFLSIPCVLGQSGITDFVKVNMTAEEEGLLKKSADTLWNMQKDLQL
UniProt P08556, whole entry: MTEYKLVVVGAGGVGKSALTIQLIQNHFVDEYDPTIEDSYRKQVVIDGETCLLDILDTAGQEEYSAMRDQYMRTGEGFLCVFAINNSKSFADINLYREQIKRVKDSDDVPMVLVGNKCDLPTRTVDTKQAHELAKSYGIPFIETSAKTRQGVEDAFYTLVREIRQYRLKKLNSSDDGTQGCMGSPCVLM
UniProt P12849, whole entry: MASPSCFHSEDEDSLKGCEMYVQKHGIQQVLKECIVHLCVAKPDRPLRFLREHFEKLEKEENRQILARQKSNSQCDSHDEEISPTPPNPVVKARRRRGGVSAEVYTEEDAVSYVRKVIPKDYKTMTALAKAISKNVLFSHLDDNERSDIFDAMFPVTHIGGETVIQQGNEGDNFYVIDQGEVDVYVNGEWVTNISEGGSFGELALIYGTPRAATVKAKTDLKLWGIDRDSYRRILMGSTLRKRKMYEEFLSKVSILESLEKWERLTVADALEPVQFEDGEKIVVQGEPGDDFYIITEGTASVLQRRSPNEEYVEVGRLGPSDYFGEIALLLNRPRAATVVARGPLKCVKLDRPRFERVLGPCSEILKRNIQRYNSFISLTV
UniProt O89114: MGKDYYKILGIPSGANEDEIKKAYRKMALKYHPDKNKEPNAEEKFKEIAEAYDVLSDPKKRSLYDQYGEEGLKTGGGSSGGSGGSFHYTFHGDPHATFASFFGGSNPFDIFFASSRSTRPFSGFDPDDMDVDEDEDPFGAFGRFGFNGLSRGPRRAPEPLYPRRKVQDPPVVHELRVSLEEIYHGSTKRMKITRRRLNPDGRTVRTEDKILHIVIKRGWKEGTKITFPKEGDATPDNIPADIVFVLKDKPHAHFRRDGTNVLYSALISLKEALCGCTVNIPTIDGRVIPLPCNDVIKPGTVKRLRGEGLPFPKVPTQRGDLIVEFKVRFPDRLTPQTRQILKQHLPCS
UniProt P0C8B4: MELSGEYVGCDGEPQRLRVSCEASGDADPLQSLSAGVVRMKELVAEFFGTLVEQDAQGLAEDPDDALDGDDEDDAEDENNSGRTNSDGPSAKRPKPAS
UniProt P10639: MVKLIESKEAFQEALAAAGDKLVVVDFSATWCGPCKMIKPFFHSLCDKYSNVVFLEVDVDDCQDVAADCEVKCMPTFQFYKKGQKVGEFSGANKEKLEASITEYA
UniProt P15864, whole entry: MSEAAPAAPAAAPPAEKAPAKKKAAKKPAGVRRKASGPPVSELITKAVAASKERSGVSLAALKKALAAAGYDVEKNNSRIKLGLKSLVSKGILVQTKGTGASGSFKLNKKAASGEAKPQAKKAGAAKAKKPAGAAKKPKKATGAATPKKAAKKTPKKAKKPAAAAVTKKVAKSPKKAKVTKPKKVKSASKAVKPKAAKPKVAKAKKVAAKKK
UniProt O88939: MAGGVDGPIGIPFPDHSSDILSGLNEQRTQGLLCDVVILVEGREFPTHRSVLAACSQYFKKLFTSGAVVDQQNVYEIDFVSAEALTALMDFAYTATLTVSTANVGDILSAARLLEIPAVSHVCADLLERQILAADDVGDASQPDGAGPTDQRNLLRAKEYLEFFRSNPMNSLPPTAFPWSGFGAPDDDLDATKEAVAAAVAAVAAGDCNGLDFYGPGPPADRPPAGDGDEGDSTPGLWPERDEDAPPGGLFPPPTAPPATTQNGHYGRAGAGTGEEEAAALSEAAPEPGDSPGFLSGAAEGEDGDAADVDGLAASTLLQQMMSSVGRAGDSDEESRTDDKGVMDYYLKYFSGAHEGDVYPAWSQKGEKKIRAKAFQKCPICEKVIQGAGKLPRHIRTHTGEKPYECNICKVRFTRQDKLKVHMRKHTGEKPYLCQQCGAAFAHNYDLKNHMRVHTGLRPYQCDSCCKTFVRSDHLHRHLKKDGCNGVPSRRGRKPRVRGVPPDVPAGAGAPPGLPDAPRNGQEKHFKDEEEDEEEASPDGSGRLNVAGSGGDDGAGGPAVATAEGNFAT
UniProt P09925: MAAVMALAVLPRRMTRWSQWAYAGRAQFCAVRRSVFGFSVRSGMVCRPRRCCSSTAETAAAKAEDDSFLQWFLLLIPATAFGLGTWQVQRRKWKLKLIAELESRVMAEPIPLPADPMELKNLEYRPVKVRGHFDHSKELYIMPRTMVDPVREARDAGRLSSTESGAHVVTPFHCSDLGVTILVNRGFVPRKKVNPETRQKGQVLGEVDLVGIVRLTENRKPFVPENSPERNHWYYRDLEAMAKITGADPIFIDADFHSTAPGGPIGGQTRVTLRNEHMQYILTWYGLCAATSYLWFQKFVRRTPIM
UniProt P09671: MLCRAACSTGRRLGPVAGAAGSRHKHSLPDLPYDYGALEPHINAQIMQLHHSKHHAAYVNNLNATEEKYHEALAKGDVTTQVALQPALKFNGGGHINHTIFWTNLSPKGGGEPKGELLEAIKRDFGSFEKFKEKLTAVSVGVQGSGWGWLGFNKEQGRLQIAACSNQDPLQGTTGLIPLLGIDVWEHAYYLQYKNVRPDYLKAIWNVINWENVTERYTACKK
UniProt P01670, whole entry: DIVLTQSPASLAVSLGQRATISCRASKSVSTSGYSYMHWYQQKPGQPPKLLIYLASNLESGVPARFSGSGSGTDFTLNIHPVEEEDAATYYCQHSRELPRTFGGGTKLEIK
UniProt P07903: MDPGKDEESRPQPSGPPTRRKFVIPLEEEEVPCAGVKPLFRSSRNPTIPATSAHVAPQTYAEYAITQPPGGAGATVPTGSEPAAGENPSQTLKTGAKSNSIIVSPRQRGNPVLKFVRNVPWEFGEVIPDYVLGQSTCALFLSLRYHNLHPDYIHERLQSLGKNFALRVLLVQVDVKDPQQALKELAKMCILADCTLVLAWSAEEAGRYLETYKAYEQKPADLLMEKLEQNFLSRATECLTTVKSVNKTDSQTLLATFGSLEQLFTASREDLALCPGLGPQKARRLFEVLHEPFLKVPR
UniProt P13412, whole entry: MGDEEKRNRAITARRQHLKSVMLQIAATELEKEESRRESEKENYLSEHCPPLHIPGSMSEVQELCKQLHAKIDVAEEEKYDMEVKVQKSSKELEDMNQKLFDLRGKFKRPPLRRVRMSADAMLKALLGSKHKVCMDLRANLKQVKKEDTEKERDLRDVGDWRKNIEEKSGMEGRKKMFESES
UniProt P03995, whole entry: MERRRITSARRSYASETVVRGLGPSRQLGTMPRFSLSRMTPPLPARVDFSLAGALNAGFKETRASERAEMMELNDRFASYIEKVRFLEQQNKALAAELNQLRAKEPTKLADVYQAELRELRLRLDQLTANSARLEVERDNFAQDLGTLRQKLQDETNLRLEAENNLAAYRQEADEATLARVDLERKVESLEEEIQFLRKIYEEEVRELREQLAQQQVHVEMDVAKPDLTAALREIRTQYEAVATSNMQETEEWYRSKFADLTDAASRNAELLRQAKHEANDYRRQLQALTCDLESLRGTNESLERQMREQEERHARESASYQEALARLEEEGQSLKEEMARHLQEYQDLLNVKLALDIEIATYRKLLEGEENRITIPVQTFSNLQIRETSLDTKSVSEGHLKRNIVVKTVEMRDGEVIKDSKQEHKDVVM
UniProt P01942: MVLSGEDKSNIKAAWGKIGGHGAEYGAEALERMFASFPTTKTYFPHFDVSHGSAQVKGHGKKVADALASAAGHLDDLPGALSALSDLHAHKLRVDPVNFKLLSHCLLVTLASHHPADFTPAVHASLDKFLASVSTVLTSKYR
UniProt P05202: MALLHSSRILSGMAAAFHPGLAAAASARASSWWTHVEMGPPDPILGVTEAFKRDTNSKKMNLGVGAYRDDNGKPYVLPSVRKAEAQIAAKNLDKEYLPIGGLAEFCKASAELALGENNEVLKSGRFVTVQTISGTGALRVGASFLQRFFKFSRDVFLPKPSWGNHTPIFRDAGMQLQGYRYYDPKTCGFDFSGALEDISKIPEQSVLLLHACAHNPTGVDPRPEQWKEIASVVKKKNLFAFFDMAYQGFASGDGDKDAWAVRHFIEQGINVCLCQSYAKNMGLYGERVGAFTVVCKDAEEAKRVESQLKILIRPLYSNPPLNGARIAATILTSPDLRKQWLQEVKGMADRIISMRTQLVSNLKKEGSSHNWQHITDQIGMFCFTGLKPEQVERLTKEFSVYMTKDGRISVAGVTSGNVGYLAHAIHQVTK
UniProt P10922, whole entry: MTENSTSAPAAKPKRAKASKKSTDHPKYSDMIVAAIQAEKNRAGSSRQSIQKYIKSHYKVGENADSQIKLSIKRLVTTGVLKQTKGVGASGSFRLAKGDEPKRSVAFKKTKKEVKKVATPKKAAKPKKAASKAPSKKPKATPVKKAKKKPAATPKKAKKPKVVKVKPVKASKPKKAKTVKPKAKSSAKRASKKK
UniProt P12400: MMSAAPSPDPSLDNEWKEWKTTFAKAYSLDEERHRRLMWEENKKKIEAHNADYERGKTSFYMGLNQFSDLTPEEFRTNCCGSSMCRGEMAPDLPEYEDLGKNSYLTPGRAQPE
UniProt P12790: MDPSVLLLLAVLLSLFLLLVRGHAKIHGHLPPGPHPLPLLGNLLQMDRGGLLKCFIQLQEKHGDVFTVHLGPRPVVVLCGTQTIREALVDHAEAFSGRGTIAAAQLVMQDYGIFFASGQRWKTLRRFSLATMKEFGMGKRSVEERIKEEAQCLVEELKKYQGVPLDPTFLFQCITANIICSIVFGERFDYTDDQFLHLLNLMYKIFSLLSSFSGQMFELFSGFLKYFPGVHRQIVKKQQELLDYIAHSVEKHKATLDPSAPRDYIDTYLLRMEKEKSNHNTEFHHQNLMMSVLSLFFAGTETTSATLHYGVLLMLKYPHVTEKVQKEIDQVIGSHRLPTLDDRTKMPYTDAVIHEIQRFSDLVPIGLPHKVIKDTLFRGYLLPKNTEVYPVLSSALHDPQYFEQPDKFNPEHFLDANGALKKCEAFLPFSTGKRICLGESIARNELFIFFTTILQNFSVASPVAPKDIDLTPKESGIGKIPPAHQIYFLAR

The other results are listed elsewhere or left out. Small differences around the control level are noise.

Compound in the experiment: CN[C@@H]1C[C@H]2O[C@@](C)([C@@H]1OC)n1c3ccccc3c3c4c(c5c6ccccc6n2c5c31)C(=O)NC4 [staurosporine]
In words: log2 fold change of tryptic peptide abundance, ligand vs vehicle (limited proteolysis) (log2 ratio); higher = more trypsin-susceptible (destabilized). Conditions: ligand concentration: 20 uM; sample: mouse liver crude lysate; replicate design: treated separately.

For the target “UniProt P14733 (peptide sequence: LYKEELEQTYHAK, peptide start residue: 260)”, the log2 fold change is -0.115. For “UniProt P0DOV2 (peptide sequence: KIMREEETGVK, peptide start residue: 157)” the value was 0.613. The figure for “UniProt P08207 (peptide sequence: EFPGFLENQKDPLAVDK, peptide start residue: 38)” is 0.457; for “UniProt P12246 (peptide sequence: GRDNELLIYK, peptide start residue: 76)” it is 0.233.

For “UniProt P00342 (peptide sequence: LVIITAGAR, peptide start residue: 91)”, the log2 fold change is -0.147. Consider “UniProt P06802 (peptide sequence: MERDGDQAGHGPR, peptide start residue: 1)”, for which the log2 fold change worked out at 0.313.

Take “UniProt P08556 (peptide sequence: VKDSDDVPMVLVGNK, peptide start residue: 103)”: the log2 fold change stood at 0.146.

For the target “UniProt P12849 (peptide sequence: KMYEEFLSK, peptide start residue: 244)”, the log2 fold change was 0.192. Turning to “UniProt P07742 (peptide sequence: VMFDKITSR, peptide start residue: 13)”, the log2 fold change amounted to 0.329. The figure for “UniProt O89114 (peptide sequence: FGFNGLSR, peptide start residue: 144)” is -0.166; for “UniProt P0C8B4 (peptide sequence: TNSDGPSAK, peptide start residue: 84)” it is -0.0621. As to “UniProt P15208 (peptide sequence: NCMVAHDFTVK, peptide start residue: 1154)”, the log2 fold change is -1.18. “UniProt P01899 (peptide sequence: YFETAVSRPGLEEPR, peptide start residue: 31)”: the log2 fold change was -0.226. As for “UniProt P09041 (peptide sequence: FHVEEEGK, peptide start residue: 124)”, the log2 fold change is -0.124.

Turning to “UniProt P10639 (peptide sequence: CMPTFQFYK, peptide start residue: 73)”, the log2 fold change was -0.157. For “UniProt P0C090 (peptide sequence: KGHETPQPQPNSK, peptide start residue: 398)” the value was -0.778; for “UniProt P15864 (peptide sequence: SEAAPAAPAAAPPAEKAPAKK, peptide start residue: 2)”, -0.268.

For the target “UniProt O88939 (peptide sequence: EYLEFFR, peptide start residue: 159)”, the log2 fold change came to 0.227. For “UniProt P09925 (peptide sequence: NLEYRPVK, peptide start residue: 121)” the value was -0.0524; for “UniProt P09671 (peptide sequence: GGGEPKGELLEAIKR, peptide start residue: 109)”, -0.529; for “UniProt P01670 (peptide sequence: ELPRTFGGGTK, peptide start residue: 97)”, 0.493. For “UniProt P08553 (peptide sequence: VHYLEQQNK, peptide start residue: 117)” the value was -0.194. For “UniProt P07903 (peptide sequence: KFVIPLEEEEVPCAGVKPLFR, peptide start residue: 21)” the value was -0.295. “UniProt P13412 (peptide sequence: MSADAMLK, peptide start residue: 117)”: the log2 fold change is 0.382.

Turning to “UniProt P02463 (peptide sequence: SAPFIECHGR, peptide start residue: 1610)”, the log2 fold change is -0.00359.

For “UniProt P03995 (peptide sequence: FADLTDAASR, peptide start residue: 258)”, the log2 fold change is -0.257. For “UniProt P11881 (peptide sequence: IYYTTERDEQGSK, peptide start residue: 2226)” the value was 0.577; for “UniProt P01942 (peptide sequence: TYFPHFDVSHGSAQVK, peptide start residue: 42)”, -0.115; for “UniProt P14206 (peptide sequence: SDGIYIINLKR, peptide start residue: 43)”, 0.128. Turning to “UniProt P11714 (peptide sequence: ITSHDIEVQDFLIPK, peptide start residue: 380)”, the log2 fold change is -0.175.

For the target “UniProt P05202 (peptide sequence: VGAFTVVCKDAEEAK, peptide start residue: 288)”, the log2 fold change was -0.27. In the case of “UniProt O89090 (peptide sequence: KFACPECPKR, peptide start residue: 686)”, the log2 fold change is 0.383. The figure for “UniProt P13705 (peptide sequence: SSASSTEPAEKVTEGDSR, peptide start residue: 36)” is -0.489; for “UniProt P10922 (peptide sequence: KSTDHPKYSDMIVAAIQAEK, peptide start residue: 21)” it is -0.333.

In the case of “UniProt P12400 (peptide sequence: KIEAHNADYER, peptide start residue: 45)”, the log2 fold change came out at 0.0139. In the case of “UniProt P11588 (peptide sequence: FAQLCEK, peptide start residue: 152)”, the log2 fold change was -0.0595. For “UniProt P14824 (peptide sequence: GFGSDKESILELITSR, peptide start residue: 35)”, the log2 fold change was -0.509. Regarding “UniProt P12790 (peptide sequence: ICLGESIAR, peptide start residue: 444)”, the log2 fold change is 0.0692.

Consider “UniProt P15116 (peptide sequence: GPFPQELVR, peptide start residue: 174)”, for which the log2 fold change was 0.359.
